Reference: paper PMC4909252, “High-resolution NMR structures of the domains of Saccharomyces cerevisiae Tho1”
Negatives hold for the conditions tested. At least one verdict was read from the data and is not stated in words by the source. Where a protein sequence is shown, tags need not be part of it.

molecular target: T1, Tho1 C-terminal domain (Saccharomyces cerevisiae) (UniProt P40040); assay: NMR (15N HSQC); conditions: 200 uM protein, 200 uM oligo, 200 uM protein and oligo, typical NMR buffer 20 mM potassium phosphate pH 6.5, 100 mM NaCl, 5 mM beta-mercaptoethanol, 10% D2O, 25 C, recombinant protein, residues 119-183, protein details: His6-lipoyl fusion removed by TEV, 15N-labelled
T1 sequence (looked up): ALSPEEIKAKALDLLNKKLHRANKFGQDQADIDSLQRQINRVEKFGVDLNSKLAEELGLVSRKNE

Binding result, no binding:
UUUUUUUUUUUUUUUUUU [18-mer polyU]
GGACAGCUGUCCCUUCGGGGACAGCUGUCC [30-mer dsRNA]
CUUGUACAUAGUUGGCCAUA [20-mer ssRNA]
AAAAAAAAAAAAAAAAAA [18-mer polyA]
